Results deposited as PubChem BioAssay AID1259425 (University of Nebraska Medical Center, 2018)

Assay: 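Find knockdowns that reproduce the gene expression pattern seen when KSR1 is lost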 (primary screen)
Cells: HCT116 human colon cancer cells
Reagents: siRNA pool against human genes, 50 nM siRNA
Read-out: 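After 50 nM siRNA pool, branched-DNA assay measures six marker transcripts per well, minus blank, normalised to the geometric mean of two housekeeping transcripts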
Direction: BNIP3L mRNA: higher = more BNIP3L transcript after knockdown
This is an unselected part of about 14,000 deposited reagents. Not all columns of the deposit are shown. Not stated in the record: the time to read-out.

| target | BNIP3L mRNA, set 1 |
| --- | --- |
| CDC14B | 0.11 |
| ZNF287 | 0.13 |
| ZNF559 | 0.192 |
| RAPGEF1 | 0.0923 |
| RAD54L | 0.134 |
| TGFA | 0.107 |
| C9orf78 | 0.147 |
| RPS20 | 0.0631 |
| CCDC87 | 0.0791 |
| GET4 | 0.0952 |
| SLC9A1 | 0.066 |
| GPR137 | 0.198 |
| RCN2 | 0.0795 |
| LDOC1 | 0.087 |
| ULBP2 | 0.136 |
| PRSS2 | 0.0789 |
| NIPSNAP3B | 0.0817 |
| RUNDC3A | 0.0997 |
| SPEF2 | 0.0989 |
| DPCD | 0.179 |
| IL19 | 0.0994 |
| WLS | 0.135 |
| TRIP6 | 0.0531 |
| TOPBP1 | 0.111 |
| SLC16A3 | 0.0824 |
| C2 | 0.0304 |
| RNF138 | 0.0692 |
| CASP1 | 0.0716 |
| REV1 | 0.0974 |
| TAS2R14 | 0.15 |
| COL8A2 | 0.153 |
| MRPL19 | 0.12 |
| COPRS | 0.095 |
| PIGO | 0.0586 |
